{"source": "patent US20110054179A1", "about": "“MMP-2 AND/OR MMP-9 INHIBITOR” (priority 2008, published 2011)", "origin": "cited, not measured here", "tested_on": "bleomycin- or asbestos-induced lung fibrosis", "settings": "bleomycin- or asbestos-induced lung fibrosis animal model; cited from earlier work", "note": "For at least one compound, name, drawing or mass did not settle the structure."}
{"smiles": "CNC(=O)[C@H](Cc1ccccc1)NC(=O)[C@H](CC(C)C)[C@H](CSc1cccs1)C(=O)NO", "note": "[batimastat]", "values": [{"measurement": "increase in MMP activity and the number of white blood cell infiltrated in the bronchoalveolar lavage fluid", "value": "suppressed"}, {"measurement": "lung fibrosis in the histological and biochemical aspects", "value": "suppressed"}]}
